Article PMC2614481

T1: Sc_Rpd3p (S. cerevisiae) (UniProt P32561)
T1 sequence: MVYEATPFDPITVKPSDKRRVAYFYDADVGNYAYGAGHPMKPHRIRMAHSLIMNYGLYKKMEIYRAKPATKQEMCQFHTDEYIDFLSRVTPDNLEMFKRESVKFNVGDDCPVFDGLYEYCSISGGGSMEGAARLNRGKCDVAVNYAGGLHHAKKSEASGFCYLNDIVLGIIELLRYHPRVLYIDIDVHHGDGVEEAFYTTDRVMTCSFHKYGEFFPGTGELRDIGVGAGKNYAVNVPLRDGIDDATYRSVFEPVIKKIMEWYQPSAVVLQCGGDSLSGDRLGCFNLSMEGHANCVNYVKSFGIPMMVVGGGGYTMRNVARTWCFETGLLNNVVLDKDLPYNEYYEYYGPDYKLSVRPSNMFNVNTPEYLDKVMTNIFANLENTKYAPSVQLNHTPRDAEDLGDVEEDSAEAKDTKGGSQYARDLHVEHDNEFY

T2: Sp_Alp13p (S. pombe) (UniProt O13953)
T2 sequence: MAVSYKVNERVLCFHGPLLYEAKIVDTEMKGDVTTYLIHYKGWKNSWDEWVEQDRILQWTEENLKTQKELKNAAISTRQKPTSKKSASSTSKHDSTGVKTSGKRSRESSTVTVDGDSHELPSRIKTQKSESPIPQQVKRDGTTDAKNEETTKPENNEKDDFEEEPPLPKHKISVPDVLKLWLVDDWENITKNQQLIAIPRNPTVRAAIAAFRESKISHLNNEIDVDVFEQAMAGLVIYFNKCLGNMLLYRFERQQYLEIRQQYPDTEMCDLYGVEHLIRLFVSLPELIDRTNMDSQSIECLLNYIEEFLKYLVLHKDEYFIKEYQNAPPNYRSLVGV


Each binder was assayed against T1, Sc_Rpd3p (S. cerevisiae) (assay: affinity purification with mass spectrometry; TAP of baits TAP-tagged at their genes from S. cerevisiae extracts; eluates on 6-18% gels, Coomassie, bands and slices identified by MALDI peptide mapping and LC-MS/MS; common background removed, A-index cut-off 1.75).

| binding | Binder |
| --- | --- |
| binds | Sc_Tod6p (protein, UniProt P34219 1-525) MTLPKLSSVSVSSGHVSANSHGFSILSKHPHPNNLVHSHSLSHTNAKSHLPISSTSTKENSTNKEEAESLKKNNPSSWDPSDDIKLRHLKEIKNLGWKEIAHHFPNRTPNACQFRWRRLKSGNLKSNKTAVIDINKLFGVYATGDATPSAGTPSAEEAVKEEAVEDEDITAGSSAIEDSPPDFKPLVKPKYMDRKLITQRSTSTFSDHEPQHTKPRKLFVKPRSFSHSITTNTPNVKTAQQTNLSLYNTTSAKTNKAVNSNDYENIGLVPKIIIRSRRNSFIPSTQIPHSTTKTRKNSHSVISSRRSSFNMMHSRRSSFNSHAPTEPISRRASLVVSPYMSPRRLSTSQSVHYHPQHQYYLNPIASPNCKTDHANDKITHTRTFLDMQKFANKHPWSREDDEVLLNNTKDKQNHLSPLEISIVLPNNRSELEIQQRMDYLKRKGRVSGFHTNEGCKDEEEEDDIDPLHKENGINTPSQQSQNYGMLEAKHDNPKSSELSSMTSANDIRNEQDELPGINSIFKNIF |
| binds | UME6 (S. cerevisiae) (protein, UniProt P39001 1-836) MLDKARSQSKHMDESNAAASLLSMETTANNHHYLHNKTSRATLMNSSQDGKKHAEDEVSDGANSRHPTISSASIESLKTTYDENPLLSIMKSTCAPNNTPVHTPSGSPSLKVQSGGDIKDDPKENDTTTTTNTTLQDRRDSDNAVHAAASPLAPSNTPSDPKSLCNGHVAQATDPQISGAIQPQYTATNEDVFPYSSTSTNSNTATTTIVAGAKKKIHLPPPQAPAVSSPGTTAAGSGAGTGSGIRSRTGSDLPLIITSANKNNGKTTNSPMSILSRNNSTNNNDNNSIQSSDSRESSNNNEIGGYLRGGTKRGGSPSNDSQVQHNVHDDQCAVGVAPRNFYFNKDREITDPNVKLDENESKINISFWLNSKYRDEAYSLNESSSNNASSNTDTPTNSRHANTSSSITSRNNFQHFRFNQIPSQPPTSASSFTSTNNNNPQRNNINRGEDPFATSSRPSTGFFYGDLPNRNNRNSPFHTNEQYIPPPPPKYINSKLDGLRSRLLLGPNSASSSTKLDDDLGTAAAVLSNMRSSPYRTHDKPISNVNDMNNTNALGVPASRPHSSSFPSKGVLRPILLRIHNSEQQPIFESNNSTAVFDEDQDQNQDLSPYHLNLNSKKVLDPTFESRTRQVTWNKNGKRIDRRLSAPEQQQQLEVPPLKKSRRSVGNARVASQTNSDYNSLGESSTSSAPSSPSLKASSGLAYTADYPNATSPDFAKSKGKNVKPKAKSKAKQSSKKRPNNTTSKSKANNSQESNNATSSTSQGTRSRTGCWICRLRKKKCTEERPHCFNCERLKLDCHYDAFKPDFVSDPKKKQMKLEEIKKKTKEAKRRAMKKK |

Continued, binder first:

| Binder | binding |
| --- | --- |
| Sc_Snt2p (protein, UniProt P53127 1-1403) MPKEEDFQLPRRREAAKNVNYNEMEIDTKLVQQIQIAEKSGAKTKGSNSQTPRNCKRTSNPASRNEKFKYQKFLHDKNTCWNFIPTLPPSFRKNSRFSNILDLDDAMIDLKKMSLFNTESVLLSANDTIYMISEPAGEPYYVGRVVNFVSKPEFSNTIHEAIKTTSVFPAKFFQVRMNWFYRPRDIQEHVNTFNPRLVYASLHQDICPISSYRGKCSIFHKDEVFDVLPNEKECIIRPNIFYFDELFDRYTLKYYKVYSTDKILNKWNSKSPFLYVLNRRFRYIYTEPKYPLENVLKKYVFHELEVNELSPADYQWDKRCQFCKEWCIQKESLSCDECGVCAHLYCMDPPLDRKPNKDVVWTCFSCLQKQQGTKDSHVRFLEEQALELDFIRSVRQKIEEISSKAIKENVGYNTENCWFQYLGIYSISHIGDALNDSMFFPYPFKPSRVGVKYQWNGCNHNVPWRRNSYISANSEEERGSTKTSELAWVLDASKITTRKLSEYIEQCKSEICPILNVRGETCNFIDVVLKNLLFTNYDTAEAFKKCKRELSRKFLKEPSFTAVEIRKFEEAVEKFGSELRPVCEYVGTQPMSMIVRFYYNWKKTERGLTVRGKLSKLSKNKRKKEIANHENDVETKYIDDSSFDTEKLSLAESSFQCMFCKTDYSPMWYRVTGGSDDEKIKIRMQTGVNEKTEISEKSPAHSKKNEKLGALCIRCARMWRRYAIKWVPPLETLRKITGTCQNSFYSAIEGIIEENNTNKFTLSPFQAHNKLLEWELVQDSELIIRQRMKVYKNPNSFVKMKRYSMTFHTQLYKMAVRSYRKNEFHPETMQRDLELFIEDNKEVRKAIPEQKPERAKNTKDEFPVNIIRQSPGTIKTSDTSRNRKCNDVFIEKASNNNIPKITNASNDLIEISIKTGGSSSGSVSVDKGFKFVKFDNKTFQRLRNSLKLVNNKLPKYNEPSTKKIKMINDIALSNPLNEPNGASYNYTVISHSKETSVALEKYHDGNKPSKMLEKDMILKHTKNKPKNPDTAWANNSARTFCSVCKEKFNDNDNYEVVCGNCGLTVHYFCYAIKLPKDMKKNTNLKTFKWLCDPCSNDLNPIISTTYQCSMCPTKDYDYDRYRSQSFKICPDALKCTSLGTWVHLVCSLFNEDIKYGNGQSMQPALNTTAVLIKHSRFTCGVCRINGGGLVKCNKCQYRYHITCAQNSSNFKLMFEKKNMSVDTTLPCIKDVKLNDTYTLRPILICDRHDISLEGNELYPLSYKPQHTLSYIEQYCRYYKCESDHSLVELRYFEQLRLRHGEMPGNSHDSAIKPKIYVLPFERTCPHCGTNKSLYWYEDIICHSCNLRSGAQELDFDSASANISNDNGLPVEITQQLMEGIEPAMFDIDISEAGTDKNTHPSSQ | binds |
| Sc_Dot6p (protein, UniProt P40059 1-670) MSISTSLNSASIHLSSMDTHPQLHSLTRQPHSSSTAMSKNEAQESSPSLPASSSSSTSASASASSKNSSKNPSSWDPQDDLLLRHLKEVKKMGWKDISQYFPNRTPNACQFRWRRLKSGNLKSNKTALIDINTYTGPLKITHGDETANAQQKPSKKVEENVLTEDTAEFTTTSSIPIPSRKTSLPSFHASMSFSQSPSNVTPTTIVSNAASSMPFAPPTLPAALPHHPHQHLHHHPHHKTLKPRSNSHSFTNSLNQDPIVRSNDEEKYGFIPKVFVRSRRSSFAYPQQVAITTTPSSPNSSHVLLSSKSRRGSLANWSRRSSFNVSSNNTSRRSSMILAPNSVSNIFNVNNSGSNTASTSNTNSRRESVIKKEFQQRLNNLSNSGGPTSNNGPIFPNSYTFMDLPHSSSVSSSSTLHKSKRGSFSGHSMKSSCNPTNLWSKDEDALLMENKKRNLSVMELSILLPQRTEVEIQWRLNALSSDADMLSPTHSPQKTLSKKTCPRMFKSGSTTDDDKGSDKEDVMGDGSNDDDEDNVDPLHRAKQSSNKTVFSSSSSNISSKDVSPDPIFSPDPADDSSNTSDAGSRCTITSDTSSSAATMNRTPNSKNPQDIALLNNFRSEAITPRPKPSSTTTSITTETTNNMINHSSSTTTTTNNSPLPSINTIFKDML | binds |
| ASH1 (S. cerevisiae) (protein, UniProt P34233 1-588) MSSLYIKTPLHALSAGPDSHANSSYYDNLLLPSFSNLSSNISRNNITTDNNINSASPRKYSFHSLNVSPILSPISLANEILGKKSNTAPASPHHMDYNPISSLTPGNSPEFNKASLSQISFTNPLNYGSGLGFSSNSQPRLPLLDRLSSVSLSKRPERPQQSLPSLRHLQLLPSPLLQENAARFPDTSKRTSNWKTDLTHWCKDTNYQDYVKIREEVAHFKPLSIPNLTNNQNNDSFNYGKELESTRSSKFHSPSKESFDRTKLIPSILEAKDQFKDLSNNAWSITPPVTPPMSPPTNRTMERTTLRGVEASFFEGKSSNNDSIFNPIISEKLVQEVKHQRQLRGNSFPMPNASHKKTNSFKALQIKKLLANRDILSNNSKSNVRKPSKNKISKQASNVFGNTARQLVMKLDNASYSSVSASSSPSPSTPTKSGKMRSRSSSPVRPKAYTPSPRSPNYHRFALDSPPQSPRRSSNSSITKKGSRRSSGSSPTRHTTRVCVSCHSSDSPCWRPSWSPRKQDQLCNSCGLRYKKTHTRCLNDLCRKIPTKGEINIMKSNGIDKEFVPERNCEIEGYRCLFCNYITETVEN | binds |

The binders below were run against T2, Sp_Alp13p (S. pombe) (assay: affinity purification with mass spectrometry; TAP of baits TAP-tagged at their genes from S. pombe extracts; eluates on 6-18% gels, Coomassie, bands and slices identified by MALDI peptide mapping and LC-MS/MS; common background removed, A-index cut-off 1.75).

| binding | Binder |
| --- | --- |
| binds | Clr6p (S. pombe) (protein, UniProt O59702 1-405) MGFGKKKVSYFYDEDVGNYHYGPQHPMKPHRVRMVHNLVVNYNLYEKLNVITPVRATRNDMTRCHTDEYIEFLWRVTPDTMEKFQPHQLKFNVGDDCPVFDGLYEFCSISAGGSIGAAQELNSGNAEIAINWAGGLHHAKKREASGFCYVNDIALAALELLKYHQRVLYIDIDVHHGDGVEEFFYTTDRVMTCSFHKFGEYFPGTGHIKDTGIGTGKNYAVNVPLRDGIDDESYESVFKPVISHIMQWFRPEAVILQCGTDSLAGDRLGCFNLSMKGHSMCVDFVKSFNLPMICVGGGGYTVRNVARVWTYETGLLAGEELDENLPYNDYLQYYGPDYKLNVLSNNMENHNTRQYLDSITSEIIENLRNLSFAPSVQMHKTPGDFTFENAEKQNIAKEEIMDERV |
| binds | YAF9 (S. pombe) (protein, UniProt Q10319 1-217) MAPNTRVSKCQISRPILVGNDAKPLTKEEKEKAPTDHTHTWRIFVEGVDGEDISKWVRKVVFKLHDTYNNPTRTIESPPFEVIETGWGEFDIMVRIFFAPEAHEKALTFYHHLKLHPYGPRMEEMKASGGLVESVQYEEIVFNEPFEYTYKLLSQNPIGDGHGLAVESEPDHPFSQQLEQDEADKLDFAIQEVKKTIEMYKQQVQSLQGQKSSTPVE |

These are yes or no findings as the source states them, for the method shown. Binding seen in cells or lysates may run through a third protein. A yes stands for co-enrichment or nearness to the bait. Other partners may have been found.
